From paper PMC8523714
No constants are given. Whether binding was seen depends on the method and setting. Binding seen in cells or lysates may run through a third protein. Some results given as binding are weak or reduced against the parent protein; the word gives no strength. Where a sequence is shown, tags or fusion partners need not be part of it. One block for each molecule: values may come before it.

Protein sequences, listed by entry. Tags and fused reporters are not part of them. Lines headed by an entry give the natural chain unless they say otherwise; changes in a name come on top. Chains listed by the source or under a name are the forms on record and can include a tag or linker.
UniProt Q9BYI3: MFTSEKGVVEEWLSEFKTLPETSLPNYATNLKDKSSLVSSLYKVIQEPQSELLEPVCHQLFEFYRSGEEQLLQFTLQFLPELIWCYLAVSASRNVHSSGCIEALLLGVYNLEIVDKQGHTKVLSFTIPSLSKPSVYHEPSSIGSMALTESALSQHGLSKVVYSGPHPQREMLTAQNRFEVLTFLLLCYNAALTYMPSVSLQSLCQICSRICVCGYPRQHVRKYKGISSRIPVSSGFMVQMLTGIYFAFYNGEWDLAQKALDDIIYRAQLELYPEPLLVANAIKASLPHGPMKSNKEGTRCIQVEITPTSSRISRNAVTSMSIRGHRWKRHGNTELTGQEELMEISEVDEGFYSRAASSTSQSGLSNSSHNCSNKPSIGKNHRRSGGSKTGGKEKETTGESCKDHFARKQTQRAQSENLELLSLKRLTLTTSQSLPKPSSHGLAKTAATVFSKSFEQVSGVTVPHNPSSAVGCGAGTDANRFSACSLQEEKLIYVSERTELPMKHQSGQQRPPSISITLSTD
FLAG-FAM126A^ASASAA (Q9BYI3, form named): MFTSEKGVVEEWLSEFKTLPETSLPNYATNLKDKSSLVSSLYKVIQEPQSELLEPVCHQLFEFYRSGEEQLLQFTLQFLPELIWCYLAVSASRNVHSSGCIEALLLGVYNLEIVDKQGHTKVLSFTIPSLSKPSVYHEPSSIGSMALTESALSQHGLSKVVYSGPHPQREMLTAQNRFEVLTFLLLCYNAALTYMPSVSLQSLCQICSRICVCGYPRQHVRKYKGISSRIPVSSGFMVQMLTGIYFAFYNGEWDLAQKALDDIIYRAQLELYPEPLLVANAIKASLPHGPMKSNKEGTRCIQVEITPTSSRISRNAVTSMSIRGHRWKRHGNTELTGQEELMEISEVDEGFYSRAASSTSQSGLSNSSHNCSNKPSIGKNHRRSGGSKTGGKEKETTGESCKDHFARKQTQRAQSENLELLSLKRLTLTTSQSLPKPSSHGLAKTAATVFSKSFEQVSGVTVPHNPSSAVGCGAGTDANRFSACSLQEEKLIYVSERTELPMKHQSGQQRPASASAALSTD

Columns and labels:
[1] = target: T1, EFR3B-HA (human) (UniProt Q9Y2G0); test: co-IP; EFR3B-HA immunoprecipitated (anti-HA beads) from lysates of HeLa cells expressing GFP-PI4KA, EFR3B-HA, TTC7B-MYC and FLAG-FAM126A (WT or ASASAA); immunoblot
T1 sequence: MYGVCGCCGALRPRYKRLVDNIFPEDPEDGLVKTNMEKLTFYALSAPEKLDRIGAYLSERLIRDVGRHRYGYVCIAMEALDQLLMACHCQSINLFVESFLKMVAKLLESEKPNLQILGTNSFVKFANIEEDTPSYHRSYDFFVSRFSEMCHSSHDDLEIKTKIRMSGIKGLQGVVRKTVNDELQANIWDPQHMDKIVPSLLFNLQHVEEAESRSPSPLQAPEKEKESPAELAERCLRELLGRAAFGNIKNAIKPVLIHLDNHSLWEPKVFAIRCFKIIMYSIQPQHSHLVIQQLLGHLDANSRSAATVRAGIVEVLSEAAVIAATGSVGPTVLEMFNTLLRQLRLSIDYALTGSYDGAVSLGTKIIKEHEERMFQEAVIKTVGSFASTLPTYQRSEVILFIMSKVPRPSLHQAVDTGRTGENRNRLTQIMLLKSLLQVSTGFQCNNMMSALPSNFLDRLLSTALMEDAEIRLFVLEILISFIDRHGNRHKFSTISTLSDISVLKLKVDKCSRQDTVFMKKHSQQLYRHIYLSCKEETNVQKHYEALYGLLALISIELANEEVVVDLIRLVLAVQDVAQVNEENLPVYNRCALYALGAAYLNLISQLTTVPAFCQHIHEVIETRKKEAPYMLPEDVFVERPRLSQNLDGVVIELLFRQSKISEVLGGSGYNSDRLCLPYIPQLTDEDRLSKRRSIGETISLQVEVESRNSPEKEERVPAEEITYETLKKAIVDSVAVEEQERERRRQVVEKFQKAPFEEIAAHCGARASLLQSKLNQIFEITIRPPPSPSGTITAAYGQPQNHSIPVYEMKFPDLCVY

[2] = target: T1, EFR3B-HA (human); test: co-IP; EFR3B-HA immunoprecipitated (anti-HA beads) from lysates of HEK293 Flp-In T-REx cells that express GFP-CNAβ forms and were transfected with EFR3B-HA, TTC7B-MYC, FLAG-FAM126A and GFP-PI4KA; 50 mM Tris pH 7.5, 150 mM NaCl, 0.5% Triton X-100, 4 °C; immunoblot
[3] = target: GFP-CNAβ1 (human) (UniProt Q5F2F8); test: co-IP; GFP-CN isoforms immunoprecipitated (GFP) from lysates of HEK293 Flp-In T-REx cell lines co-expressing FLAG-NFATC1; immunoblot
[4] = target: GFP-CNAβ2 (human) (UniProt P16298); test: as above

binding [1]: binds
Molecule: FLAG-FAM126A^WT (from UniProt Q9BYI3 1-521)

binding [3]: no binding | binding [4]: binds
B1: FLAG-NFATC1 (protein, UniProt O95644 1-943)
chain: MPSTSFPVPSKFPLGPAAAVFGRGETLGPAPRAGGTMKSAEEEHYGYASSNVSPALPLPTAHSTLPAPCHNLQTSTPGIIPPADHPSGYGAALDGGPAGYFLSSGHTRPDGAPALESPRIEITSCLGLYHNNNQFFHDVEVEDVLPSSKRSPSTATLSLPSLEAYRDPSCLSPASSLSSRSCNSEASSYESNYSYPYASPQTSPWQSPCVSPKTTDPEEGFPRGLGACTLLGSPRHSPSTSPRASVTEESWLGARSSRPASPCNKRKYSLNGRQPPYSPHHSPTPSPHGSPRVSVTDDSWLGNTTQYTSSAIVAAINALTTDSSLDLGDGVPVKSRKTTLEQPPSVALKVEPVGEDLGSPPPPADFAPEDYSSFQHIRKGGFCDQYLAVPQHPYQWAKPKPLSPTSYMSPTLPALDWQLPSHSGPYELRIEVQPKSHHRAHYETEGSRGAVKASAGGHPIVQLHGYLENEPLMLQLFIGTADDRLLRPHAFYQVHRITGKTVSTTSHEAILSNTKVLEIPLLPENSMRAVIDCAGILKLRNSDIELRKGETDIGRKNTRVRLVFRVHVPQPSGRTLSLQVASNPIECSQRSAQELPLVEKQSTDSYPVVGGKKMVLSGHNFLQDSKVIFVEKAPDGHHVWEMEAKTDRDLCKPNSLVVEIPPFRNQRITSPVHVSFYVCNGKRKRSQYQRFTYLPANVPIIKTEPTDDYEPAPTCGPVSQGLSPLPRPYYSQQLAMPPDPSSCLVAGFPPCPQRSTLMPAAPGVSPKLHDLSPAAYTKGVASPGHCHLGLPQPAGEAPAVQDVPRPVATHPGSPGQPPPALLPQQVSAPPSSSCPPGLEHSLCPSSPSPPLPPATQEPTCLQPCSPACPPATGRPQHLPSTVRRDESPTAGPRLLPEVHEDGSPNLAPIPVTVKREPEELDQLYLDDVNEIIRNDLSSTSTHS

Continued, molecule first:

Molecule: GFP-PI4KA (from UniProt P42356 1-2102)
binding [1]: binds | binding [2]: binds

Molecule: GFP-CNAβ2 (from UniProt P16298 1-524)
binding [2]: binds

Molecule: GFP-CNAβ1 (from UniProt Q5F2F8 1-496)
binding [2]: binds

Molecule: FLAG-FAM126A^ASASAA (from UniProt Q9BYI3 1-521)
binding [1]: binds

Molecule: GFP-CNAβ1^C2S (from UniProt Q5F2F8 1-496)
binding [2]: binds
